No constants are given. Whether binding was seen depends on the method and setting. Binding seen in cells or lysates may run through a third protein. These calls come from enrichment with a bait or labelling near it, and not all partners need be listed.

Protein sequences, listed by entry. Tags and fused reporters are not part of them.
UniProt P46937: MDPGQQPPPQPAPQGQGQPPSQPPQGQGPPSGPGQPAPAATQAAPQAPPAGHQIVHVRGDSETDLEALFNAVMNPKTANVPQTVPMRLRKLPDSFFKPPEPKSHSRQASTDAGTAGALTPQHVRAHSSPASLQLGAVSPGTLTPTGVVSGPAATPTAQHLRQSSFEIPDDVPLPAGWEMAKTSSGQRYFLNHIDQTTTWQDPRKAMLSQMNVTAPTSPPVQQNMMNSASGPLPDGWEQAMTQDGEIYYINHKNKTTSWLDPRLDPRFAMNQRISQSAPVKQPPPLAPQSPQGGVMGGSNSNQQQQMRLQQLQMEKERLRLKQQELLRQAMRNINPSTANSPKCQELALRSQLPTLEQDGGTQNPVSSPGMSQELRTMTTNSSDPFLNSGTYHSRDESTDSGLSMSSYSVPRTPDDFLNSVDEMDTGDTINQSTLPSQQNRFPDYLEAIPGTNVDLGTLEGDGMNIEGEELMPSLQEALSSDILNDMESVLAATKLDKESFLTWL

For this assay, the target named is Flag-YAP1 (UniProt P46937). The assay can be described thus: affinity purification with mass spectrometry; 6×10^8 BGC823 cells stably expressing Flag-YAP1 or control vector; anti-Flag beads overnight at 4°C; elution with Flag peptides, SDS-PAGE, bands excised, in-gel trypsin digestion, mass spectrometry.

B1: nucleolar spindle-associated protein 1 (NUSAP1), endogenous (protein, UniProt Q9BXS6 1-441)
chain: MIIPSLEELDSLKYSDLQNLAKSLGLRANLRATKLLKALKGYIKHEARKGNENQDESQTSASSCDETEIQISNQEEAERQPLGHVTKTRRRCKTVRVDPDSQQNHSEIKISNPTEFQNHEKQESQDLRATAKVPSPPDEHQEAENAVSSGNRDSKVPSEGKKSLYTDESSKPGKNKRTAITTPNFKKLHEAHFKEMESIDQYIERKKKHFEEHNSMNELKQQPINKGGVRTPVPPRGRLSVASTPISQRRSQGRSCGPASQSTLGLKGSLKRSAISAAKTGVRFSAATKDNEHKRSLTKTPARKSAHVTVSGGTPKGEAVLGTHKLKTITGNSAAVITPFKLTTEATQTPVSNKKPVFDLKASLSRPLNYEPHKGKLKPWGQSKENNYLNQHVNRINFYKKTYKQPHLQTKEEQRKKREQERKEKKAKVLGMRRGLILAED
As to B1, the binding result is reported as “binds”.

For the origin of these results see article PMC7817543.
